In ChEMBL document CHEMBL3526101, “Discovery and characterization of novel, potent, and selective cytochrome P450 2J2 inhibitors” (Drug Metab Dispos, 2013):

Molecular target: T1, Cytochrome P450 2J2 (Homo sapiens, UniProt P51589)
T1 sequence (P51589 whole entry): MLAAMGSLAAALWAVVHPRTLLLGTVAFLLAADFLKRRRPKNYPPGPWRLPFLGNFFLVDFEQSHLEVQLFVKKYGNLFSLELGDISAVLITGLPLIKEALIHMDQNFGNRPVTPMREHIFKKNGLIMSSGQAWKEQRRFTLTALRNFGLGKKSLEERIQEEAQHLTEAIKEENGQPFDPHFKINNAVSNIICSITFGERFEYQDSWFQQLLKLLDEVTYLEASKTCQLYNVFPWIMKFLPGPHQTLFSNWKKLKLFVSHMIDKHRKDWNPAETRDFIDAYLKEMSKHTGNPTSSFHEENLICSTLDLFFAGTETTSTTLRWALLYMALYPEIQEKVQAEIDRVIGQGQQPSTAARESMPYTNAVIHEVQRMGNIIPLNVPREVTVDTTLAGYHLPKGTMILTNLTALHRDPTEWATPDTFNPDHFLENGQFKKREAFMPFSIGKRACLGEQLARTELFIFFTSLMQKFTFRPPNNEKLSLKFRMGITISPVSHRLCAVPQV

## COC(=O)C1=C(C)NC(C)=C(C(=O)OC)C1c1ccccc1[N+](=O)[O-] [NIFEDIPINE]
  IC50: 3.06 µM
